Consider one molecule from PubChem BioAssay AID198 (DTP/NCI, 2004).

The assay has as its system B16 melanoma ip, C57BL/6 mice, median survival T/C. The assay is described as follows: NCI In Vivo Anticancer Drug Screen. Data for tumor model B16 Melanoma (intraperitoneal) in C57BL/6 mice. The conditions noted are these: T/C endpoint: median survival time, schedule: Q01DX009 (ip), vehicle: saline, higher T/C = longer survival. Here is the method:
The antitumor activity of compounds was measured in mice bearing transplantable tumors. Survival or tumor size were measured and the results are expressed as the measurement made in the treated group (T) divided by the measurement made in the vehicle treated control group (C). The tumor model used in this assay is B16 Melanoma (intraperitoneal) in C57BL/6 mice

SMILES strings stand for the structures. The list shows only some results of the screen, not a fair sample: it gathers some chemical classes. Other doses and runs of a compound may be missing. T/C: endpoint of the treated group in % of that of the vehicle group. Some entries give survivors of the animals treated and no T/C: the source files T/C as zero there, which appears to mark a toxic dose or a test without result, not a measured value. Some doses without a T/C left all or most animals alive at the check, yet need not have been tolerated: the source hardly ever lists a survival T/C far under the control, and the zero likely stands for such cases as well. Survivors were counted at the toxicity check, usually on the fifth day, unless a day is given; later deaths do not show. Schedules are NCI's codes, read here as Q, the interval in days (D) or hours (H), X, the number of doses. For survival time, the PubChem record calls one and a half times the control and up active, and a quarter to a half above the control has no call in these data; cut-offs in other NCI protocols can differ. Some doses were run more than once; their values stand side by side, smallest first.

On to `NC(=O)c1[nH]cnc1/N=N\N(CCCl)CCCl`, for which the T/C is 140 and 176 % of control (dose: 50.0 mg/kg/injection); 123 and 170 % of control (dose: 100.0 mg/kg/injection); 90 and 103 % of control (dose: 200.0 mg/kg/injection); 86 % of control (dose: 400.0 mg/kg/injection). Besides, the survivor count (dose: 400.0 mg/kg/injection) was 10 of 10.
